What all share (assay): two-hybrid; C-terminus regions of MLO proteins against CaM/CML proteins; CML12 in pGADT7 (AD), MLO4C in pGBKT7 (BD); yeast strain AH109; selection on SD/-Trp-Leu-His-Ade plates for 3 to 7 days
Assay [1] deals with NTA variant K457N (C-terminus) (Arabidopsis thaliana).
The target in assay [2] is NTA variant L452R (C-terminus) (Arabidopsis thaliana).
Assay [3] deals with NTA variant L464R (C-terminus) (Arabidopsis thaliana).
For assay [4], the target named is NTA variant W455R (C-terminus) (Arabidopsis thaliana).

No constants are given. Whether binding was seen depends on the method and setting. Binding calls can cover weak binding; strength is not graded here.

B1: CML9 (protein, UniProt Q9S744 1-151)
chain: MADAFTDEQIQEFYEAFCLIDKDSDGFITKEKLTKVMKSMGKNPKAEQLQQMMSDVDIFGNGGITFDDFLYIMAQNTSQESASDELIEVFRVFDRDGDGLISQLELGEGMKDMGMKITAEEAEHMVREADLDGDGFLSFHEFSKMMIAASY
Consider B1, for which the binding entry in assay [1], in assay [2], in assay [3] and in assay [4] was “no binding” each time.

B2: CML10 (protein, UniProt P30187 1-191)
chain: MANKFTRQQISEFREQFSVYDKNGDGHITTEEFGAVMRSLGLNLTQAELQEEINDSDLDGDGTINFTEFLCAMAKDTYSEKDLKKDFRLFDIDKNGFISAAEMRYVRTILRWKQTDEEIDEIIKAADVDGDGQINYREFARLMMAKNQGHDTKYDTTGGTLERDLAAGVAKNIIAAPMTDFIKNLFEALFS
As for B2, the binding entry in assay [1], in assay [2], in assay [3] and in assay [4] was “binds” in each case.

The record behind these values is paper PMC8198571.
